Test results as given in US20200188382A1, “PHARMACEUTICAL COMPOSITION FOR INDUCING PROGRAMMED CELL DEATH IN CANCER CELLS” (KYOTO UNIVERSITY, priority 2016, published 2020).
Some of these results come from one statement about several compounds together.

System: Human cervical cancer cell line HeLa
Experiment: Activation of caspase 3 (programmed cell death), flow cytometry two-color dot plots
Assay type: cell-based
Settings: 10 μM; for ratio of cells with RedDot 2 negative and NucView 488 positive: 16 hours at 37° C., MEM (No Glucose) containing 0.1% Galactose and 5% FBS, FIG. 4, reference value 6.7%; for induction of programmed cell death in cancer cells: 16 hours, FIG. 4

O=[N+]([O-])c1ccccc1S(=O)(=O)Nc1cc(C(F)(F)F)ccc1N1CC[C@@H]2CCCC[C@H]2C1 [Compound 8]
ratio of cells with RedDot 2 negative and NucView 488 positive: higher than 6.7% | induction of programmed cell death in cancer cells: induced programmed cell death in cancer cells

O=S(=O)(Nc1cc(C(F)(F)F)ccc1N1CC[C@@H]2CCCC[C@H]2C1)c1ccc2c(c1)OCCO2 [Compound 9]
ratio of cells with RedDot 2 negative and NucView 488 positive: higher than 6.7% | induction of programmed cell death in cancer cells: induced programmed cell death in cancer cells

COc1ccc(C(=S)Nc2cc(C(F)(F)F)ccc2N2CC[C@H]3CCCC[C@@H]3C2)cc1 [Compound 10]
ratio of cells with RedDot 2 negative and NucView 488 positive: higher than 6.7% | induction of programmed cell death in cancer cells: induced programmed cell death in cancer cells

O=C(Nc1cc(C(F)(F)F)ccc1N1CC[C@H]2CCCC[C@@H]2C1)c1ccc(O)cc1 [Compound 11]
induction of programmed cell death in cancer cells: induced programmed cell death in cancer cells

O=S(=O)(Nc1cc(C(F)(F)F)ccc1N1CC[C@@H]2CCCC[C@H]2C1)c1ccc(-c2ccccc2)cc1 [Compound 7]
ratio of cells with RedDot 2 negative and NucView 488 positive: higher than 6.7% | induction of programmed cell death in cancer cells: induced programmed cell death in cancer cells

O=S(=O)(Nc1cc(C(F)(F)F)ccc1N1CC[C@@H]2CCCC[C@H]2C1)c1ccc2ccccc2c1 [Compound 6, N-(2-((4aS,8aR)-octahydroisoquinolin-2(1H)-yl)-5-(trifluoromethyl)pheny)-2-naphthalenesulfonamide]
ratio of cells with RedDot 2 negative and NucView 488 positive: higher than 6.7% | induction of programmed cell death in cancer cells: induced programmed cell death in cancer cells

O=S(=O)(Nc1cc(C(F)(F)F)ccc1N1CC[C@@H]2CCCC[C@H]2C1)c1ccc(Br)cc1 [Compound 4, 4-bromo-N-(2-((4aS,8aR)-octahydroisoquinolin-2(1H)-yl)-5-(trifluoromethyl)phenyl)benzenesulfonamide]
induction of programmed cell death in cancer cells: induced programmed cell death in cancer cells

O=S(=O)(Nc1cc(C(F)(F)F)ccc1N1CC[C@@H]2CCCC[C@H]2C1)c1cccnc1 [Compound 5, N-(2-((4aS,8aR)-octahydroisoquinolin-2(1H)-yl)-5-(trifluoromethyl)phenyl)-3-pyridine-sulfonamide]
induction of programmed cell death in cancer cells: induced programmed cell death in cancer cells

Cc1ccc(S(=O)(=O)Nc2cc(C(F)(F)F)ccc2N2CC[C@@H]3CCCC[C@H]3C2)cc1 [Compound 3]
induction of programmed cell death in cancer cells: induced programmed cell death in cancer cells

Oc1ccc(C(=S)Nc2cc(C(F)(F)F)ccc2N2CC[C@H]3CCCC[C@@H]3C2)cc1 [Compound 12]
ratio of cells with RedDot 2 negative and NucView 488 positive: higher than 6.7% | induction of programmed cell death in cancer cells: induced programmed cell death in cancer cells

O=S(=O)(Nc1cc(C(F)(F)F)ccc1N1CC[C@@H]2CCCC[C@H]2C1)c1ccccc1 [Compound 2, N-(2-((4aS,8aR)-octahydroisoquinolin-2(1H)-yl)-5-(trifluoromethyl)phenyl)benzenesulfonamide]
induction of programmed cell death in cancer cells: induced programmed cell death in cancer cells

O=S(=O)(Nc1cc(C(F)(F)F)ccc1N1CC[C@@H]2CCCC[C@H]2C1)c1ccc(F)cc1 [Compound 1]
induction of programmed cell death in cancer cells: induced programmed cell death in cancer cells
